# Measurements published in the supplement of paper PMC8426693.
# This is one part of the list. Many values rest on one well or one pass, so single values are uncertain.
# Legend:
# Settings in all cases: RNA concentration 10 µM; fragment concentration 200 µM; 293 K
# [1] = system: SARS-CoV-2 5_SL8 RNA; experiment: waterLOGSY factor (bound vs free ligand) (ratio); higher = stronger binding
# [2] = system: SARS-CoV-2 3'-UTR RNA; experiment: T2 signal reduction relative to ligand without RNA (fraction); higher = stronger binding
# [3] = system: SARS-CoV-2 3_SL3base RNA; experiment: as above
# [4] = system: SARS-CoV-2 5'-UTR RNA; experiment: as above
# [5] = system: SARS-CoV-2 5_SL5 RNA; experiment: as above
SMILES,waterLOGSY factor [1],T2 signal reduction [2],T2 signal reduction [3],T2 signal reduction [4],T2 signal reduction [5]
c1cc(-c2ccc3c(c2)OCO3)n[nH]1,0.574,0.51,0.41,0.84,0.94
CC(N)c1ccc(-c2cncnc2)cc1 (stereo not given),,0.16,,0.52,
O=C(OCc1ccc(Cl)cc1)c1cccnc1,,0.23,,0.22,
CCN(C)C(=O)c1cccc(N)c1,1.14,,,,
